From US7385029 (dated 2008)

Assay: general procedure: solution-phase peptide synthesis; diethyl cyanophosphate and triethylamine

## N^2-(N,N-dimethyl-L-valyl)-N-[(1S,2R)-2-methoxy-4-[(2S)-2-[(1R,2R)-1-methoxy-2-methyl-3-oxo-3-[(2-phenylethyl)amino]propyl]-1-pyrrolidinyl]-1-[(S)-1-methylpropyl]-4-oxobutyl]-N-methyl-L-valinamide
Coupling step
  final HPLC purity: 99.2%
Late stage modification step
  final HPLC purity: 99.3%
